Data as given in article PMC10266767.
No constants are given. Whether binding was seen depends on the method and setting. Some entries that bind do so weakly or less than the wild type.

The chains behind the UniProt entries cited, without tags or fusion partners. Where a name states a change or a piece, a line headed by the entry shows the natural chain unless it says otherwise. Residues count along the entry.
UniProt P16109, residues 42-771: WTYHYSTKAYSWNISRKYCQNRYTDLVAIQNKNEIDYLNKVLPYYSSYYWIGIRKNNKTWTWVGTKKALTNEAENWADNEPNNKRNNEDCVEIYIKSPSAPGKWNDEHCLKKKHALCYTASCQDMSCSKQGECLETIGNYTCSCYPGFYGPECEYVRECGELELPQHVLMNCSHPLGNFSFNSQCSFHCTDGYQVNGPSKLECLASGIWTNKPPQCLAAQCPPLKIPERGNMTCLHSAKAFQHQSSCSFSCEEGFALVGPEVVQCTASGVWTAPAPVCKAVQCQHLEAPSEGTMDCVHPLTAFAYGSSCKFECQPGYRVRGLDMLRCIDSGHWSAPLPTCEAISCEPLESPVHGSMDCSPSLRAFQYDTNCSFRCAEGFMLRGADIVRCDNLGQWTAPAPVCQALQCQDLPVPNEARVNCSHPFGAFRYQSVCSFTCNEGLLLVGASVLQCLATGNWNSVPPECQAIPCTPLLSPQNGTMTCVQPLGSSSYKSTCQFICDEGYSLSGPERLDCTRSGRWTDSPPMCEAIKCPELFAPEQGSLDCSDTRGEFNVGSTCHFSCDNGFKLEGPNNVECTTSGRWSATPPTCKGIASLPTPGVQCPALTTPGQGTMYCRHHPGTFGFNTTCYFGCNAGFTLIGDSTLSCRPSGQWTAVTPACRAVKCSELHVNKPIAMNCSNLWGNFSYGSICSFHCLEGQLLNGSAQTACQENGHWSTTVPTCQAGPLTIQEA
UniProt P26022, residues 18-381: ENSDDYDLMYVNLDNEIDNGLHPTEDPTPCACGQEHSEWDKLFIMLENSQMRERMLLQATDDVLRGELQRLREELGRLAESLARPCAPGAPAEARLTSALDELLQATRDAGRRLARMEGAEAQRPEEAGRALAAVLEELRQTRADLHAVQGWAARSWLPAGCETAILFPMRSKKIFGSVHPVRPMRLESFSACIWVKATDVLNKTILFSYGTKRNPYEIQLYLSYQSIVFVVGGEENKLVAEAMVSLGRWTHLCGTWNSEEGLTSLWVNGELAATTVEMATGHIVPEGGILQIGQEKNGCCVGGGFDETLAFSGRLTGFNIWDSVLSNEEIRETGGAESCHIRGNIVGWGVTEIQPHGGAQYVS

Target: recombinant form of the human P-selectin ectodomain (spanning the 42-771 sequence of the preprotein) (human) (UniProt P16109)
Test: ELISA; solid phase binding assay: 96-well Maxisorp plates coated with the indicated amounts of P-selectin ectodomain or C1q, incubated with the A48 or D48 PTX3 variant (both at 3 nM); bound protein revealed with an anti-human PTX3 polyclonal antibody, OD 450 nm; both purified

| Substance | binding |
| --- | --- |
| recombinant human PTX3, A48 allelic variant (Ala at position 48 of the preprotein; C allele of the +734A/C polymorphism rs3816527) (from UniProt P26022 18-381) | binds |
| recombinant human PTX3, D48 allelic variant (Asp at position 48 of the preprotein; A allele of the +734A/C polymorphism rs3816527) (from UniProt P26022 18-381) | binds |
